Assay results reported in patent US20160251435A1 (INHIBRX, published 2016).
No constants are given. Whether binding was seen depends on the method and setting. Some results given as binding are weak or reduced against the parent protein; the word gives no strength.

By UniProt entry, the sequences of proteins in these tests, tags left out. Where a name states a change or a piece, a line headed by the entry shows the natural chain unless it says otherwise.
UniProt Q08722: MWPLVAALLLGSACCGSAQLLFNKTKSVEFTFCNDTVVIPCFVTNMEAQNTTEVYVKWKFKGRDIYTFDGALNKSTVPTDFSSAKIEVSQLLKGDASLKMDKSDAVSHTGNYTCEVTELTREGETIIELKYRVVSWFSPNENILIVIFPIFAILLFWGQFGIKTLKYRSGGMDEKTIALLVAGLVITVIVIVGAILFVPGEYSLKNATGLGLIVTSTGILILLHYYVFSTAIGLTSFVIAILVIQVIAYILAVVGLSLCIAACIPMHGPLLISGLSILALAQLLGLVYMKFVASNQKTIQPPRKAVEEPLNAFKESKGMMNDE

How the values were obtained:
[1] = target: cynomolgus monkey CD47 on cynomolgus B-cells (cynomolgus monkey); assay: flow cytometry on cynomolgus B-cells (FIG. 5)
[2] = target: cynomolgus monkey CD47 on cynomolgus B-cells (cynomolgus monkey); assay: flow cytometry on cynomolgus B-cells
[3] = target: cynomolgus monkey CD47 on cynomolgus B-cells (cynomolgus monkey); assay: flow cytometry on cynomolgus B-cells (CD20-gated PBMC), signal normalised to the maximum of the antibody on that cell population
[4] = target: recombinant human CD47 (immobilized, hybridoma screen) (human) (UniProt Q08722); assay: blocking ELISA: hybridoma supernatant with SIRPa-ECD-Fc on immobilised recombinant CD47

Binder	binding [1]	binding [2]	binding [3]	binding [4]
murine CD47 antibody 2A1 (antibody, mouse IgG1, V domains shown, Hybridoma-derived mouse IgG1; also called 2A1-mIgG1; 2A1mIgG1) VH: EVQLQQSGAELVRSGASVKLSCTASGFNIKDYYLHWVKQRPEQGLEWIGWIDPDNGDTEFAPKFQGKATMTADTSSNTAYLQLSSLTSEDTAVYYCNAAYGSSSYPMDYWGQGTSVTV VL: DIKMTQSPSSLYASLGERVTITCKASQDIHRYLSWFQQKPGKSPKILIYRANRLVDGVPSRFSGSGSGQDYSLTISSLEYEDMGIYYCLQYDEFPYTFGGGTKLEMK	binds	binds	binds	
murine 9E4 antibody (antibody, mouse IgG1, V domains shown) VH: EVQLRQSGPELVKPGASVKISCKASGYSFTDYYMYWVKQSRVRSLAWIGRINPYTGATGYDQNFKDKASLIVDKSSSTAYMELRSLTSEDSAVYYCARGRNRYDGWFAYWGQGTLVTV VL: EIQMTQTTSSLSASLGDRVTISCRASQDISNYLNWYQQKPDGTVKLLIYYTSRLHSGVPSRFSGSGSGTDYSLTISNLDQEDIATYFCQQGNALPPTFGGGTNLEIK				binds
